According to PubChem BioAssay AID330 (DTP/NCI, 2004):
The list does not hold the whole screen: it gathers tests that were run many times, whatever their T/C, doses with no T/C, and many T/C values between a quarter and a half above the control. Further doses and runs are listed elsewhere. T/C: endpoint of the treated group in % of that of the vehicle group. Some entries give survivors of the animals treated and no T/C: the source holds a T/C of zero for them, seemingly a mark for toxic or unscored doses. Some doses without a T/C left all or most animals alive at the check, yet need not have been tolerated: the source hardly ever lists a survival T/C far under the control, and the zero likely stands for such cases as well. Counts of survivors are from the toxicity check (mostly the fifth day) where no day follows; animals may have died later. Schedules are NCI's codes, read here as Q, the interval in days (D) or hours (H), X, the number of doses. Some doses were run more than once; their values stand side by side, smallest first. Some structures stand for samples that the source files as different forms (salt, stereo form or complex); doses refer to the form tested. For survival time, the PubChem record calls one and a half times the control and up active, and a quarter to a half above the control has no call in these data; cut-offs in other NCI protocols can differ. Some T/C values carry the count of animals alive at the toxicity check (mostly the fifth day); without a count, all were alive then.

Test system: P388 leukemia ip, CD2F1 mice, survival T/C
Experiment: NCI In Vivo Anticancer Drug Screen. Data for tumor model P388 Leukemia (intraperitoneal) in CD2F1 (CDF1) mice
Details: T/C endpoint: median survival time, higher T/C = longer survival
[1] = dose: 200.0 mg/kg/injection, schedule: Q01DX009 (ip), vehicle: Klucel (hydroxypropylcellulose) (HPC)
[2] = dose: 200.0 mg/kg/injection, schedule: Q01DX009 (ip), vehicle: saline
[3] = dose: 400.0 mg/kg/injection, schedule: Q01DX001 (ip), vehicle: saline

## COc1cc(C(=O)NC2CCc3cc(OC)c(OC)c(OC)c3-c3ccc(OC)c(=O)cc32)cc(OC)c1OC (stereo not drawn)
dose: 5.0 mg/kg/injection, schedule: Q01DX009 (ip), vehicle: Klucel (hydroxypropylcellulose) (HPC), evaluated on day 30
  T/C: 144 % of control
dose: 5.0 mg/kg/injection, schedule: Q01DX009 (ip), vehicle: Klucel (hydroxypropylcellulose) (HPC), evaluated on day 35
  T/C: 128 % of control
dose: 40.0 mg/kg/injection, schedule: Q01DX009 (ip), vehicle: Klucel (hydroxypropylcellulose) (HPC)
  survivor count: 3 of 6
dose: 80.0 mg/kg/injection, schedule: Q01DX009 (ip), vehicle: Klucel (hydroxypropylcellulose) (HPC)
  survivor count: 0 of 6

## CCNCC(=O)Nc1ccc2c(c1)C(=O)c1ccc(NC(=O)CNCC)cc1C2=O
dose: 100.0 mg/kg/injection, schedule: Q04DX002 (ip), vehicle: saline with Tween-80
  T/C: 130 % of control
dose: 400.0 mg/kg/injection, schedule: Q04DX002 (ip), vehicle: saline with Tween-80
  survivor count: 5 of 6 and 6 of 6

## COc1cc2c(cc1OC)-c1c3c(cc4c1[C@H](C2)N(C)CC4)OCO3
dose: 100.0 mg/kg/injection, schedule: Q04DX003 (ip), vehicle: saline with Tween-80
  survivor count: 3 of 6

## CC[N+](C)(C)c1ccc(/C=C(/C#N)C(=O)OC)cc1
dose: 200.0 mg/kg/injection, schedule: Q01DX009 (ip), vehicle: saline with Tween-80
  survivor count: 2 of 6

## CC(C)CC(C)NC(C)CC(C)C (stereo not drawn)
dose: 100.0 mg/kg/injection, schedule: Q01DX005 (ip), vehicle: saline
  survivor count: 0 of 6
dose: 200.0 mg/kg/injection, schedule: Q01DX005 (ip), vehicle: saline
  survivor count: 0 of 6

## S=c1[nH][nH]c(=S)s1
dose: 100.0 mg/kg/injection, schedule: Q01DX009 (ip), vehicle: Klucel (hydroxypropylcellulose) (HPC)
  survivor count: 5 of 6
[1]
  survivor count: 3 of 6

## COc1ccc(C2=NN(C(C)=O)C(c3cc(OC)c(OC)cc3N)S2)cc1OC (stereo not drawn) (tested in a mixture with another compound)
dose: 60.0 mg/kg/injection, schedule: Q01DX005 (ip), vehicle: saline with Tween-80
  survivor count: 6 of 6
dose: 120.0 mg/kg/injection, schedule: Q01DX005 (ip), vehicle: saline with Tween-80
  survivor count: 6 of 6
dose: 240.0 mg/kg/injection, schedule: Q01DX005 (ip), vehicle: saline with Tween-80
  survivor count: 6 of 6

## COc1ccc(NC(CCN2CCN(CCC(=NC(C)(C)C)Nc3ccc(OC)cc3)CC2)=NC(C)(C)C)cc1
dose: 200.0 mg/kg/injection, schedule: Q01DX005 (ip), vehicle: Klucel (hydroxypropylcellulose) (HPC)
  survivor count: 2 of 6
[1]
  T/C: 128 % of control [5 of 6 alive]
[2]
  survivor count: 0 of 6

## NCC1OC(OC2C(CO)OC(OC3C(O)C(N)CC(N)C3OC3OC(CN)C(O)C(O)C3N)C2O)C(N)C(O)C1O (stereo not drawn)
[3]
  survivor count: 1 of 6

## CSc1nc(N)nc2nc[nH]c12
dose: 400.0 mg/kg/injection, schedule: Q04DX003 (ip), vehicle: saline with Tween-80
  survivor count: 0 of 6

## NC(N)=O
dose: 800.0 mg/kg/injection, schedule: Q01DX009 (ip), vehicle: saline
  survivor count: 1 of 6

## CCNC(=S)N=Nc1c(O)[nH]c2ccccc12
dose: 100.0 mg/kg/injection, schedule: Q01DX009 (ip), vehicle: saline
  survivor count: 6 of 6
[2]
  survivor count: 6 of 6

## Cc1ccc(C(=O)Cc2ccccc2C#N)cc1
dose: 50.0 mg/kg/injection, schedule: Q01DX005 (ip), vehicle: Klucel (hydroxypropylcellulose) (HPC)
  survivor count: 5 of 5
dose: 100.0 mg/kg/injection, schedule: Q01DX005 (ip), vehicle: Klucel (hydroxypropylcellulose) (HPC)
  survivor count: 5 of 5

## CS(=O)(=O)OCCCCCCCCCOS(C)(=O)=O
dose: 50.0 mg/kg/injection, schedule: Q04DX003 (ip), vehicle: saline sonified
  T/C: 133 % of control
dose: 100.0 mg/kg/injection, schedule: Q04DX003 (ip), vehicle: saline sonified
  survivor count: 6 of 6
dose: 200.0 mg/kg/injection, schedule: Q04DX003 (ip), vehicle: saline sonified
  survivor count: 6 of 6

## CC(C)(C#N)NCCNC(C)(C)C#N
dose: 25.0 mg/kg/injection, schedule: Q01DX001 (ip), vehicle: saline
  survivor count: 0 of 6 and 1 of 6
dose: 50.0 mg/kg/injection, schedule: Q01DX001 (ip), vehicle: saline
  survivor count: 0 of 6
dose: 100.0 mg/kg/injection, schedule: Q01DX001 (ip), vehicle: saline
  survivor count: 0 of 6
dose: 200.0 mg/kg/injection, schedule: Q01DX001 (ip), vehicle: saline
  survivor count: 0 of 6
[3]
  survivor count: 0 of 6
